The other results are listed elsewhere or left out.

Chains of the proteins cited; added tags and fusions are not shown.
UniProt Q0JBA9, entry or part of it: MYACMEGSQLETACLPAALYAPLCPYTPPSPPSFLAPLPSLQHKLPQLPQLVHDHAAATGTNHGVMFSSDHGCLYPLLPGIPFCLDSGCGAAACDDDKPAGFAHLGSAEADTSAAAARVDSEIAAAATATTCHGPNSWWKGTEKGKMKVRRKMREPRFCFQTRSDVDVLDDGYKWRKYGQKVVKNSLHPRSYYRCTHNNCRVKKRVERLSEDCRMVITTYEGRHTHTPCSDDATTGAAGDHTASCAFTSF

Consider 42 sequences from paper PMC7819943, “Rice protein-binding microarrays: a tool to detect cis-acting elements near promoter regions in rice”.

For the assay, the target named is OsWRKY34 (Oryza sativa, UniProt Q0JBA9 1-250). The assay can be described thus: protein-binding microarray (RPBM); PBS, 2% BSA, 51.3 ng/ul salmon testes DNA, 50 uM zinc acetate, 200 nM TF, 25 C, 1 h; high values mean tight binding. Particulars: protein: recombinant; tags: N-terminal polyhistidine and DsRed monomer fusion (pET32a); label: CyDye5-dUTP incorporated in the synthesized complementary strand; 3' TTTTT single-stranded linker to array surface; dsDNA, one strand shown. Summed up: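 The binding signal is fluorescence intensity per feature, in arbitrary units, read on an Axon 4000B scanner. Polyhistidine- and DsRed-tagged transcription factors (N-terminal fusions) from E. coli BL21-CodonPlus were purified on Ni–NTA and applied at 200 nM for 1 h at 25 °C to a double-stranded, BSA-blocked custom Agilent array in buffer with 50 µM zinc acetate.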
On to “ATTGTGCAGTTGTTCCCTAATCCCTCTGCATTTCAATTCACGGAGTCACCTAGTGCAG”, for which the binding signal was 8930 fluorescence intensity (a.u.).
To “ATCCTCTCAACCCATCACCCTATGATTTGATTCTATCCACCGGAGTCACCTAGTGCAG” belongs 8660 fluorescence intensity (a.u.).
Regarding “GCCATAAGTTTCCGTGTCCAACTCATCTTATTTGAAATTTCGGAGTCACCTAGTGCAG”, the binding signal was 11500 fluorescence intensity (a.u.).
As to “GCGGACAGCGCCGTCTCTGCTGTCTCTCTCTGTATGCTTCCGGAGTCACCTAGTGCAG”, the binding signal is 9040 fluorescence intensity (a.u.).
To “ATGACATCGTTGGTTTTCTTAATTTGGCTTTTTATAGATACGGAGTCACCTAGTGCAG” belongs 8760 fluorescence intensity (a.u.); to “CCTTCCTTACCTACGTGCGATTCCTCTTCTCTTCCGCGCCCGGAGTCACCTAGTGCAG”, 9700 fluorescence intensity (a.u.); to “CATTCTTAACTATGGACTTGGACTTCTTAGCAGTTATTTTCGGAGTCACCTAGTGCAG”, 8330 fluorescence intensity (a.u.).
“CCGCTTGTCGTTGGAGCCCCGTCGCATGATGCCGACGCGCCGGAGTCACCTAGTGCAG”: the binding signal is 9740 fluorescence intensity (a.u.).
To “GCCACCGCCTCCCCTCCCGCGCGTACGCCGCGGCCGCCAACGGAGTCACCTAGTGCAG” belongs 9520 fluorescence intensity (a.u.).
As for “TTGCTGTTCTTTTTTTCCCCTCTCTCTTTTAATACTTTTACGGAGTCACCTAGTGCAG”, the binding signal was 9760 fluorescence intensity (a.u.).
As for “TCCATCGCGCGTCGTCTCCACCTTTGTTGCTTGTGCCACCCGGAGTCACCTAGTGCAG”, the figure is 10200 fluorescence intensity (a.u.); as for “AATAAGACGAATGGTCAAACATGTACTAAAAAGTCAACGGCGGAGTCACCTAGTGCAG”, 13200 fluorescence intensity (a.u.); as for “GCTCTCCTTGCTGTCAAGTCGGCCCTCGGCAACCCGCCGGCGGAGTCACCTAGTGCAG”, 8310 fluorescence intensity (a.u.).
Regarding “CATCTTGTCTTCGTCTTCCCCACTTGGAATCCTTCACTTCCGGAGTCACCTAGTGCAG”, the binding signal is 9320 fluorescence intensity (a.u.).
For “TAGCCGGGGCAGCCCACAACTGACATATTATTCTCATGATCGGAGTCACCTAGTGCAG”, the binding signal was 9170 fluorescence intensity (a.u.).
As for “AAATTTCGATGTTCATTTTTTATCGCCTCGCCTTGCATATCGGAGTCACCTAGTGCAG”, the figure is 8370 fluorescence intensity (a.u.); as for “CGTCACGCAGGCCTCCGTCGCGCCCACCGTCGCCACCTACCGGAGTCACCTAGTGCAG”, 8990 fluorescence intensity (a.u.); as for “TTCCATCCCCATCCAGGACTTTGATGATCTCTTCTCTTGACGGAGTCACCTAGTGCAG”, 8200 fluorescence intensity (a.u.).
On to “TTATATCAGAAATCAACAGCGTCATCTACTTCCTCTGTTTCGGAGTCACCTAGTGCAG”, for which the binding signal is 8830 fluorescence intensity (a.u.).
As for “ATAGCCAACTATTACTTTTAAATTATTTATAGTCAAATTTCGGAGTCACCTAGTGCAG”, the figure is 9190 fluorescence intensity (a.u.).
As for “ATTAGCTGAATCCATCTGACCCAAATTTCTTCTCTATTAGCGGAGTCACCTAGTGCAG”, the binding signal is 8620 fluorescence intensity (a.u.).
As to “ACGATGATTATGTACGATTTACGGTTGTGTATTTCATAGTCGGAGTCACCTAGTGCAG”, the binding signal was 8460 fluorescence intensity (a.u.).
Turning to “TCTGCATCCCATACGCACACAATACCTCCATCGTATGCCACGGAGTCACCTAGTGCAG”, the binding signal was 9080 fluorescence intensity (a.u.).
On to “CCTACCACGATCTCCGGCGTCCCCATCCGCGCCTCCAACTCGGAGTCACCTAGTGCAG”, for which the binding signal was 8650 fluorescence intensity (a.u.).
In the case of “GCGCACTGGTTAAATCCGTATTTTTTTTTCTCACGTATCTCGGAGTCACCTAGTGCAG”, the binding signal is 9650 fluorescence intensity (a.u.).
In the case of “GCTCAGCCGCCGTCGCCAGTCCAACCTCCGCCACCGCGGCCGGAGTCACCTAGTGCAG”, the binding signal was 8640 fluorescence intensity (a.u.).
For “CTTGGTGTCTTTATCGTGTTTGGATCTCCTATGGCGTATCCGGAGTCACCTAGTGCAG”, the binding signal is 8300 fluorescence intensity (a.u.).
For the sequence “TGCACGTGGATCAGAAGCACACCTACCGGTCCAATTTACCCGGAGTCACCTAGTGCAG”, the binding signal is 8550 fluorescence intensity (a.u.).
“AAACCCCTTGTCGTCTTCTCCATTGCGACACTGAAACTCACGGAGTCACCTAGTGCAG”: the binding signal was 10600 fluorescence intensity (a.u.).
Regarding “TTGCTCCCTGCTTTGGTTACTTGGCTACTTGCAATACACTCGGAGTCACCTAGTGCAG”, the binding signal is 8930 fluorescence intensity (a.u.).
Regarding “GATTTTTTTTCCTGTTTATTTTTTTTGTTTTTTCTTTGAACGGAGTCACCTAGTGCAG”, the binding signal was 13800 fluorescence intensity (a.u.).
As for “CGCTATCCGAACACAGCCTTAGTATTCTTCTGCAGCGGCCCGGAGTCACCTAGTGCAG”, the figure is 10800 fluorescence intensity (a.u.).
Consider “TCCCTATCTGTCTCCTCTCTCTCTCTCTCTCCTTGTGACTCGGAGTCACCTAGTGCAG”, for which the binding signal was 10500 fluorescence intensity (a.u.).
Regarding “CCGTTTTTTATACATTATTATACCTTTTCTTGCTCTTTTGCGGAGTCACCTAGTGCAG”, the binding signal is 9100 fluorescence intensity (a.u.).
As to “TATCTGCATGTTTCTGTTTTTTTTTCGAATAAACGCATGACGGAGTCACCTAGTGCAG”, the binding signal is 8250 fluorescence intensity (a.u.).
In the case of “AATTCGGGGTTTGGGGCCGCGGAGGGGTGCTTACGTGAGTCGGAGTCACCTAGTGCAG”, the binding signal is 15100 fluorescence intensity (a.u.).
Regarding “CACGTCTGGAAATGGGTGTCCGGCCTCTTCTTGCATCACTCGGAGTCACCTAGTGCAG”, the binding signal was 10700 fluorescence intensity (a.u.).
For “CTCCCTTTTTATCCTTTTTTTTTCTCCACTTTGCCTCCTTCGGAGTCACCTAGTGCAG”, the binding signal is 11100 fluorescence intensity (a.u.).
Consider “CCCCGGGCCAGAGCCGAACCATTTGGCCATCTATAACCCACGGAGTCACCTAGTGCAG”, for which the binding signal was 8130 fluorescence intensity (a.u.).
Turning to “ACCGGTCCCTTTGTCAGTTATAAGCTATACATATCGATCGCGGAGTCACCTAGTGCAG”, the binding signal is 8030 fluorescence intensity (a.u.).
For “AACTTTTTCATGTCACTTCACTTTTTTTTGTTAGCAGCCTCGGAGTCACCTAGTGCAG”, the binding signal is 11200 fluorescence intensity (a.u.).
To “TCAATGCCCCAACCACATTTTGCGCCTCAGTTACTCCACTCGGAGTCACCTAGTGCAG” belongs 9100 fluorescence intensity (a.u.).
